Here are results for 38 molecules from the supplement of paper PMC10403144.

This is one part of the list.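 Rule for the calls: active = mitochondrial OCR inhibition above 30% at 1 uM; inactive = 30% or less.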 Single values are uncertain, as repeats are few or missing.

The test system of the first experiment is Toxoplasma gondii RH tachyzoites. Nature of the experiment: inhibition of mitochondrial O2 consumption rate (% inhibition (relative to pre-injection OCR and atovaquone/antimycin A control)); higher = stronger ETC inhibition. The settings on record: 1 µM; injection port (sequential injection order): A.
With `O=C(NCc1nnc2n1CCCCC2)c1ccc(-c2ccc(F)cc2)o1`, the “inhibition of mitochondrial O2 consumption rate” value (“inhibition” for short) was inactive: -2.92.

`O=C(Nc1cccnc1)c1c(O)c2cccc3c2n(c1=O)CC3`: the “inhibition” value was inactive: 2.83. On the same count and under the same terms, the figure for `c1coc(CNc2nc(N3CCCCC3)nc3ccccc23)c1` is inactive: -2.89.

For `CCCn1c(CNc2ccccc2O)nc2ccccc21`, the “inhibition” value is inactive: -2.42. With `FC(F)(F)c1cnc(Sc2nnc(-c3ccncc3)o2)c(Cl)c1`, the “inhibition” value is inactive: -5.94. On the same count and under the same terms, the figure for `CS(=O)(=O)N1CCC(CCn2nc(Cc3cccc4ccccc34)c3c(N)ncnc32)CC1` is inactive: 8.76; for `O=C(Nc1ccccc1-c1nc2c(C(=O)O)cccc2o1)c1ccccc1` it is inactive: -8.59. On the same count and under the same terms, to `COc1cccn2c(C(=O)N3CCCCC3)c(C(F)(F)F)nc12` belongs inactive: 8; to `COc1ccc(Nc2ccccc2NC(=O)c2ccc(O)nc2)cc1`, inactive: -2.35; to `O=C1N(Cc2cc3ccccc3s2)CC2CN(Cc3ccccc3)CCN12` (stereo not drawn), inactive: 2.36. The same measure, in the same setting: to `O=C(c1ccc(NCCO)cc1)C1C[C@H]1c1ccc(Cl)cc1` (stereo partly drawn) belongs inactive: -9.36; to `N#Cc1ccc(-c2ccc(OCC(N)=O)cc2)cc1`, inactive: -0.199; to `CCc1nc2ccc(C(=O)NCc3ccc4c(c3)OCO4)cn2c1N(C)Cc1cccs1`, inactive: 0.892.

Still in this experiment, the particulars now being: 1 µM; injection port (sequential injection order): B.
Regarding `CC(C)(C)C1CCC(CC2=C(O)C(=O)c3ccccc3C2=O)CC1` (stereo not drawn), the “inhibition” value was active: 98.8. On to `C[C@@H]1[C@H](O)[C@@H](C)/C=C/C=C/C=C/C=C/C=C/C=C/C=C/[C@H](O[C@@H]2O[C@H](C)[C@@H](O)[C@H](N)[C@@H]2O)C[C@@H]2O[C@](O)(C[C@@H](O)C[C@@H](O)[C@H](O)CC[C@@H](O)C[C@@H](O)CC(=O)O[C@H]1C)C[C@H](O)[C@H]2C(=O)O`, for which the “inhibition” value was inactive: -9.51. The same measure, in the same setting: the figure for `Cc1nc2ccccn2c1C(=O)NCc1ccc(Cl)cc1` is inactive: -3.82; for `NCCCC(N)(C(=O)O)C(F)F` (stereo not drawn) it is inactive: 13.5.

With `CNCCC(Oc1ccc(C(F)(F)F)cc1)c1ccccc1` (stereo not drawn), the “inhibition” value is inactive: -2.19. Same read-out and setting: the figure for `CC(C)(C)c1cc(C(=O)Nc2cccnc2)cc(C(=O)Nc2cccnc2)c1` is inactive: 3.73; for `CCN(CC)S(=O)(=O)c1ccc(Cl)c(C(=O)Nc2ccc3nc(C)sc3c2)c1` it is inactive: -8. In the case of `COc1ccc(C2(C(=O)Nc3ccc(Br)cc3)CCCC2)cc1`, the “inhibition” value was inactive: -10.7.

Take `Cc1nnc(NC(=O)c2cn(-c3ccccc3)nc2-c2ccccc2C)o1`: the “inhibition” value is inactive: -11.7. Same read-out and setting: to `CCC(C)NC(=O)c1ccc(NC(=O)C2(c3ccccc3)CCCC2)cc1` (stereo not drawn) belongs inactive: -3.43.

The experiment is the same for the next values; noted with them: 1 µM; injection port (sequential injection order): C.
Turning to `Cc1cc(OCC(=O)Nc2ccc(C(C)C)cc2)n(C)c(=O)c1C#N`, the “inhibition” value was inactive: -9.17. On the same count and under the same terms, to `COc1cccc(-c2nc3c(N4CCCC4)cccc3n2CC2CCCN2)n1` (stereo not drawn) belongs inactive: -12.3.

On to `Cn1ccnc1CNCCS(=O)(=O)c1cccc(Nc2ccc(-c3cccc(F)c3)cn2)c1`, for which the “inhibition” value was inactive: -24. Still for that read-out and setting: the figure for `CC(=O)NCC1CN(c2ccc(-c3ccc(CNCc4cn[nH]n4)cc3)c(F)c2)C(=O)O1` (stereo not drawn) is inactive: 4.14; for `c1cc(C2=NCCN2)cc(-c2cc(-c3ccc(C4=NCCN4)cc3)no2)c1` it is inactive: -21.4.

Turning to `COc1ccc(C(=N)N)cc1-c1cn(-c2ccc(C(=N)N)cc2)nn1`, the “inhibition” value is inactive: -21.9. On to `CC(C)(C)C(=O)N(CCCCCCN1C[C@H](O)[C@@H](O)[C@H](O)[C@H]1CO)C1CCCCCC1`, for which the “inhibition” value was inactive: -7.2. On the same count and under the same terms, to `COc1ccc(OC)c(NCc2ccc3nc(N)nc(N)c3c2Cl)c1` belongs inactive: -5.85.

Turning to `CN1CCN(CCCOc2ncc(Nc3ncc(-c4ccc(C(F)(F)F)c(F)c4)nc3C(N)=O)cn2)CC1`, the “inhibition” value was inactive: -2.95. On to `CC(C)(C)n1nc(Cc2ccc(F)c(Cl)c2)c2c(N)ncnc21`, for which the “inhibition” value was inactive: -1.48. In the case of `CCc1cc(=O)n(C)c(SC(C)C(=O)Nc2ccc(F)cc2)n1` (stereo not drawn), the “inhibition” value was inactive: -0.986.

Regarding `Cc1cc(Cl)ccc1NC(=O)CCc1ccc(S(=O)(=O)NCC(C)C)cc1`, the “inhibition” value was inactive: -16. On the same count and under the same terms, to `CC1(COc2ccc(N3CCC(Oc4ccc(OC(F)(F)F)cc4)CC3)cc2)Cn2cc([N+](=O)[O-])nc2O1` (stereo not drawn) belongs inactive: -16.7; to `COc1cc(CN2CCC3(C=Cc4ccccc43)CC2)cc2c1OCO2`, inactive: -24.1; to `CC(C)(C)c1cc(C(=O)N2CCN(c3nccnc3C#N)CC2)n(Cc2ccccc2)n1`, inactive: -22.8.
